# Results as given in PubChem BioAssay AID493014 (National Center for Advancing Translational Sciences (NCATS), 2011).
# “And” between values parts separate entries of the source, which are not always exact repeats. Equal entries are not always repeated. The whole screen tested about 340,000 compounds, of which about 170 (0.05%) were called active. The shares of active, inactive and inconclusive entries below differ from those in the screen. Calls follow the shape of the dose curve; as a rule, active = well fitted inhibition curve with a large enough effect in the signal ratio, with a control signal flat (not every such curve was filed as active); inconclusive = small, poorly fitted or top-dose-only effect, or effect the other way, or a change in a side signal; inactive = flat fitted curve, though single readings scatter; the % refers to the signal ratio. Where the call is inconclusive, the potency comes from a doubtful curve fit.
# Experiment: qHTS Assay to Find Inhibitors of Chronic Active B-Cell Receptor Signaling;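 as to activity change, negative = inhibition: plate controls were basal doxycycline-induced cells for no effect and cells given 10 µM MG132 for full effect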
# Settings: ABC-DLBCL IkBa-CBG/CBR reporter, luminescence ratio (green luciferase fused to IkBa over red control in TMD8 lymphoma cells), 4 h
# Summary of the method: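 TMD8 human ABC-DLBCL cells with doxycycline-inducible IκBα–green luciferase fusion and unfused red luciferase, in 0.5% FBS medium; compounds up to 46 uM, 4 h at 37C. Green/red luminescence ratio, filter-overlap corrected, fitted to concentration-response curves.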
# [1] = activity change, negative = inhibition: at 46.1 µM (top of the series) unless noted
# Potency is read from the fitted curve at half-maximal effect.
smiles,measurement,setting,value
CC(=O)NNc1ncnc2c1cnn2-c1ccc(C)c(C)c1,"activity change, negative = inhibition",[1],inconclusive: 5.44%
CCn1c(=S)sc2c(=O)n(CC(=O)Nc3ccc(OC)c(Cl)c3)c(C)nc21,"activity change, negative = inhibition",[1],inactive
C/C(CC(=O)NC(C)(C)C)=N\NC(=O)c1ccco1,Potency,[1],"inconclusive: 18.4 µM [falling, partial curve, poor fit]"
COc1cc2c(cc1OC)/C(=C/C(=O)c1cccc([N+](=O)[O-])c1)NCC2,"activity change, negative = inhibition",[1],inactive
CC(C)CN=c1cc(-c2ccccc2)oc2ccc(Cl)cc12,Potency,[1],"inconclusive: 7.94 µM [rising, partial curve, poor fit]"
CCCCNc1c(-c2ccc(SC(C)CC)cc2)nc2cnccn12 (stereo not given),"activity change, negative = inhibition",[1],inconclusive: 1.7%
COc1ccccc1NC(=O)c1ccc(NC(=O)Cc2n[nH]c(=O)c3ccccc23)cc1,Potency,[1],"inconclusive: 31.6 µM [falling, partial curve, poor fit]"
C/C(=N\NC(=S)NC(C)C)c1ccco1,Potency,[1],"inconclusive: 35.5 µM [cytotoxic, single point]"
CC(C(O)c1ccc(O)cc1)N1CCC(Cc2ccccc2)CC1 (stereo not given),"activity change, negative = inhibition",[1],inconclusive: 2.96%
same,"activity change, negative = inhibition",at 46.1 µM (top of the series),inactive: 1.25% and inactive: 5.06%
O=C(CCCN1C(=O)/C(=C\c2cccs2)SC1=S)Nc1ccc(O)cc1,Potency,[1],"inconclusive: 22.4 µM [cytotoxic, single point]"
CCN(C(=O)COC(=O)CCNS(=O)(=O)c1ccccc1F)c1c(N)n(Cc2ccccc2)c(=O)[nH]c1=O,"activity change, negative = inhibition",[1],inactive
Cc1cc(NC(=O)CSc2nc3c(c(=O)n2-c2ccccc2)SC(C)C3)no1 (stereo not given),"activity change, negative = inhibition",[1],inactive
COc1ccc(SC[C@H](C)CN2CC[C@H](NC(=O)OCc3ccccc3)CCC2=O)cc1,Potency,[1],"inconclusive: 18.4 µM [falling, single point]"
CCOc1cccc(-c2cc(=O)[nH][nH]2)c1,Potency,[1],"inconclusive: 29.1 µM [falling, partial curve, poor fit]"
CCC(C(=O)NC1CCCCC1)N(C(=O)c1snc(C(N)=O)c1N)c1ccc(OC)cc1OC (stereo not given),"activity change, negative = inhibition",[1],inconclusive: 0.161%
CC1Cc2ccccc2N1C(=O)Cc1cccs1 (stereo not given),"activity change, negative = inhibition",[1],inconclusive: -1.57%
COc1ccc(NC2CCCN(C(=O)c3cc(C)nc4cc(F)ccc34)C2)cc1 (stereo not given),"activity change, negative = inhibition",[1],inactive
Fc1ccc(OCc2nc(-c3cccs3)no2)cc1,Potency,[1],"inconclusive: 35.5 µM [falling, single point]"
CC1=CC(=O)C(C(C)C)=CC1=NC(=O)c1ccc(C)cc1,"activity change, negative = inhibition",[1],inactive
COc1ccc2c(c1)CCC/C2=N\NC(=O)c1ccoc1C,Potency,[1],"inconclusive: 29.1 µM [rising, single point]"
CCOc1ccc2nc(NC(=O)COC)sc2c1,Potency,[1],"inconclusive: 29.1 µM [falling, partial curve, poor fit]"
COc1ccccc1CN1C[C@@H]2C[C@@H](c3[nH]c4ccc(C)cc4c3C)N3CCC[C@@]23C1=O,"activity change, negative = inhibition",[1],inconclusive: -17.8%
CCc1nc(Nc2ccc(N3CCN(C(C)=O)CC3)cc2)c2oc3ccccc3c2n1,"activity change, negative = inhibition",[1],inconclusive: -28%
COc1ccc(C2=CC(=O)C[C@H](c3ccc(F)cc3)C2)c(OC)c1,"activity change, negative = inhibition",[1],inconclusive: 1.99%
O=C(c1ccco1)N1CCC(c2ccccc2)C1 (stereo not given),Potency,[1],"inconclusive: 31.6 µM [falling, single point]"
C=CCC(CC=C)(NC(=O)c1ccccc1C(=O)O)c1ccccc1,"activity change, negative = inhibition",[1],inconclusive: 6.57%
O=C(O)CCSc1ncnc2sc(-c3ccccc3)cc12,Potency,[1],"inconclusive: 14.1 µM [falling, partial curve, poor fit]"
CCC(c1c(C)n(C)n(-c2ccccc2)c1=O)c1c(C)n(C)n(-c2ccccc2)c1=O,"activity change, negative = inhibition",[1],inconclusive: 16.9%
COC(=O)c1ccc(CSc2nc3c(c(=O)n2-c2ccc(F)cc2)SCC3)o1,"activity change, negative = inhibition",[1],inconclusive: 13.4%
Cc1nc(NS(=O)(=O)c2ccccc2)sc1C(=O)NN,Potency,[1],"inconclusive: 11.2 µM [falling, partial curve]"
COc1ccc(C(=O)Nc2ccc3c(c2)nc(CCNC(C)=O)n3C)cc1,Potency,[1],"inconclusive: 20.6 µM [falling, partial curve]"
O=C(N/N=C/c1c[nH]c2ccccc12)c1cccc(O)c1,Potency,[1],"inconclusive: 28.2 µM [falling, partial curve]"
Cc1ccccc1Cn1cc(NC(=O)c2cc(C3CC3)on2)cn1,Potency,[1],"inconclusive: 8.91 µM [rising, partial curve]"
COc1ccccc1-c1c(C(F)(F)F)oc2cc(OC(=O)c3ccccc3[N+](=O)[O-])ccc2c1=O,"activity change, negative = inhibition",[1],inconclusive: 8.91%
COc1ccc(C(=O)NNc2ncnc3c2cnn3-c2ccccc2)cc1,"activity change, negative = inhibition",[1],inconclusive: 12.3%
O=S1(=O)c2ccccc2OC(COCc2ccccc2)CN1C1CC1 (stereo not given),"activity change, negative = inhibition",[1],inconclusive: 3.35%
Cc1ccc(S(=O)(=O)N2CCCCC2)cc1NC(=O)C1CCC1,"activity change, negative = inhibition",[1],inconclusive: 0.298%
COc1cccc(NC(=O)c2ccc(OC(F)(F)F)cc2)c1,Potency,[1],"inconclusive: 23.1 µM [falling, single point]"
CC(=O)Nc1ccc(NC(=O)CSc2nc3[nH]ncc3c(=O)n2-c2ccccc2)cc1,"activity change, negative = inhibition",[1],inconclusive: -11.6%

# A different layout for some results above:
smiles	measurement	setting	value
COc1ccccc1-c1c(C(F)(F)F)oc2cc(OC(=O)c3ccccc3[N+](=O)[O-])ccc2c1=O	activity change, negative = inhibition	[1]	inconclusive: 8.91%
COc1ccc(C(=O)NNc2ncnc3c2cnn3-c2ccccc2)cc1	activity change, negative = inhibition	[1]	inconclusive: 12.3%
